This is an account of results in publication PMC6117270.

In experiment [1] the target is T1, non-POU domain containing octamer binding (NONO) protein (human (endogenous in NCI-N87, AGS and MKN-45)) (UniProt Q15233).
T1 sequence: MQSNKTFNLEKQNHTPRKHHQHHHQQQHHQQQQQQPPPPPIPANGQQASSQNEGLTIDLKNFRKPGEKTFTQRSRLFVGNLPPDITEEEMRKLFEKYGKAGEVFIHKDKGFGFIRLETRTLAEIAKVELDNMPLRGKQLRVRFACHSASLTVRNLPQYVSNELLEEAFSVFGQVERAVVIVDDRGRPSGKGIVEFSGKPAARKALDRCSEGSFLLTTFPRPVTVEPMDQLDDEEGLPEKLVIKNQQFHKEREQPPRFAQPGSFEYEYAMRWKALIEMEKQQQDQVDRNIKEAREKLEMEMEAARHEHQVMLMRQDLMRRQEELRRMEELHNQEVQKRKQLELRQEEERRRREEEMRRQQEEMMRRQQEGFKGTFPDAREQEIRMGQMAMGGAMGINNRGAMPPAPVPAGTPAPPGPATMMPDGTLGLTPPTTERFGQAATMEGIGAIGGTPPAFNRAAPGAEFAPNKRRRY
In words: co-IP; endogenous proteins, IP and western blot in NCI-N87 and AGS cells; also NCI-N87 and MKN-45 cells stably transfected with mock, pancEts-1, scramble shRNA or sh-pancEts-1 #2 (interaction increased and decreased, respectively). (A western blot detects proteins with antibodies after separation by electrophoresis.)

For experiment [2], the target named is T2, FLAG-tagged NONO protein (human) (UniProt Q15233).
T2 sequence: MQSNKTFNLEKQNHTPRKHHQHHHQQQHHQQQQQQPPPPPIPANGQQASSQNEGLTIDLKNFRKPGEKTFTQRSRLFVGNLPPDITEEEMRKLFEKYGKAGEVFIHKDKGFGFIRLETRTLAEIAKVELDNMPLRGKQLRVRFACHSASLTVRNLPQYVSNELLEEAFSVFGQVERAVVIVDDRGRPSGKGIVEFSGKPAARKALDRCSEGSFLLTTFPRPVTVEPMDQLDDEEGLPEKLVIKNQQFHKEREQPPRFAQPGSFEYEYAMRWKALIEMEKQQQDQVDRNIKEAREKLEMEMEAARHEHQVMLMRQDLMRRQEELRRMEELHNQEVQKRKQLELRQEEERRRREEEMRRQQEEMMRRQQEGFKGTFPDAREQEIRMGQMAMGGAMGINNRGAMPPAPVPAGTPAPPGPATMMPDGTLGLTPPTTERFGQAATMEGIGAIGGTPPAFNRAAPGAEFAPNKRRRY
The experiment can be described thus: co-IP; HA-tagged ERG and FLAG-tagged NONO and their truncates co-transfected into NCI-N87 cells; IP (antibodies for NONO, HA or FLAG) and western blot.

No constants are given. Whether binding was seen depends on the method and setting. Binding seen in cells or lysates may run through a third protein. Some entries that bind do so weakly or less than the wild type. For some assays here: Tags and fused reporters may be left off the sequences shown.

B1: Ets related gene (ERG) (protein, UniProt P11308-3 1-486)
chain: MIQTVPDPAAHIKEALSVVSEDQSLFECAYGTPHLAKTEMTASSSSDYGQTSKMSPRVPQQDWLSQPPARVTIKMECNPSQVNGSRNSPDECSVAKGGKMVGSPDTVGMNYGSYMEEKHMPPPNMTTNERRVIVPADPTLWSTDHVRQWLEWAVKEYGLPDVNILLFQNIDGKELCKMTKDDFQRLTPSYNADILLSHLHYLRETPLPHLTSDDVDKALQNSPRLMHARNTGGAAFIFPNTSVYPEATQRITTRPDLPYEPPRRSAWTGHGHPTPQSKAAQPSPSTVPKTEDQRPQLDPYQILGPTSSRLANPGSGQIQLWQFLLELLSDSSNSSCITWEGTNGEFKMTDPDEVARRWGERKSKPNMNYDKLSRALRYYYDKNIMTKVHGKRYAYKFDFHGIAQALQPHPPESSLYKYPSDLPYMGSYHAHPQKMNFVAPHPPALPVTSSSFFAAPNPYWNSPTGGIYPNTRLPTSHMPSHLGTYY
In the case of B1, the binding result in experiment [1] is listed as “binds”.

B2: hemagglutinin (HA)-tagged ERG (protein, UniProt P11308-3 1-486)
chain: MIQTVPDPAAHIKEALSVVSEDQSLFECAYGTPHLAKTEMTASSSSDYGQTSKMSPRVPQQDWLSQPPARVTIKMECNPSQVNGSRNSPDECSVAKGGKMVGSPDTVGMNYGSYMEEKHMPPPNMTTNERRVIVPADPTLWSTDHVRQWLEWAVKEYGLPDVNILLFQNIDGKELCKMTKDDFQRLTPSYNADILLSHLHYLRETPLPHLTSDDVDKALQNSPRLMHARNTGGAAFIFPNTSVYPEATQRITTRPDLPYEPPRRSAWTGHGHPTPQSKAAQPSPSTVPKTEDQRPQLDPYQILGPTSSRLANPGSGQIQLWQFLLELLSDSSNSSCITWEGTNGEFKMTDPDEVARRWGERKSKPNMNYDKLSRALRYYYDKNIMTKVHGKRYAYKFDFHGIAQALQPHPPESSLYKYPSDLPYMGSYHAHPQKMNFVAPHPPALPVTSSSFFAAPNPYWNSPTGGIYPNTRLPTSHMPSHLGTYY
For the molecule B2, the binding result in experiment [2] is recorded as “binds”.
